The results in this text go back to paper PMC5996148.

“And” between values parts separate entries of the source, which are not always exact repeats. Equal values may be shown once. The list shows a part of the results.

Test systems include C14orf130 (human); C14orf131 (human); C14orf159 (human); C14orf24 (human); C14orf45 (human); C15orf38 (human); C15orf41 (human); C16orf13 (human); C16orf30 (human); C16orf74 (human).
What all share (assay): protein microarray (ProtoArray v5.0), streptavidin-Alexa Fluor 647
Conditions in all cases: 3'-biotin; 20 mM Tris (pH 7.5), 5 mM MgCl2, 100 mM KCl, 0.1% Tween-20, A/T-rich and random oligonucleotide blockers; temperature not stated; high values mean tight binding

For the sequence “GGGGACAGGGGTATGGGGAGGGG [G4-3 biotinylated (CtG)]”, the binding signal in the assay on C14orf130 (human) is -0.336 z-score; with C14orf131 (human), -0.313 z-score and -0.335 z-score; in the assay on C14orf159 (human) it was -0.319 z-score; with C14orf24 (human), -0.311 z-score; in the assay with C14orf45 (human), -0.326 z-score; in the assay with C15orf38 (human), -0.319 z-score. The binding signal is -0.322 z-score with C15orf41 (human), -0.32 z-score in the assay on C16orf13 (human), -0.329 z-score with C16orf30 (human) and -0.327 z-score in the assay on C16orf74 (human).
